Laboratory results reported in paper PMC5470003.
These are yes or no findings as the source states them, for the method shown. Binding seen in cells or lysates may run through a third protein. Some entries that bind do so weakly or less than the wild type. Values belong to the molecule of their own block, whether it stands above or below them.

Sequences of proteins named here, by UniProt entry; tags and fusion partners are left off.
UniProt P19091: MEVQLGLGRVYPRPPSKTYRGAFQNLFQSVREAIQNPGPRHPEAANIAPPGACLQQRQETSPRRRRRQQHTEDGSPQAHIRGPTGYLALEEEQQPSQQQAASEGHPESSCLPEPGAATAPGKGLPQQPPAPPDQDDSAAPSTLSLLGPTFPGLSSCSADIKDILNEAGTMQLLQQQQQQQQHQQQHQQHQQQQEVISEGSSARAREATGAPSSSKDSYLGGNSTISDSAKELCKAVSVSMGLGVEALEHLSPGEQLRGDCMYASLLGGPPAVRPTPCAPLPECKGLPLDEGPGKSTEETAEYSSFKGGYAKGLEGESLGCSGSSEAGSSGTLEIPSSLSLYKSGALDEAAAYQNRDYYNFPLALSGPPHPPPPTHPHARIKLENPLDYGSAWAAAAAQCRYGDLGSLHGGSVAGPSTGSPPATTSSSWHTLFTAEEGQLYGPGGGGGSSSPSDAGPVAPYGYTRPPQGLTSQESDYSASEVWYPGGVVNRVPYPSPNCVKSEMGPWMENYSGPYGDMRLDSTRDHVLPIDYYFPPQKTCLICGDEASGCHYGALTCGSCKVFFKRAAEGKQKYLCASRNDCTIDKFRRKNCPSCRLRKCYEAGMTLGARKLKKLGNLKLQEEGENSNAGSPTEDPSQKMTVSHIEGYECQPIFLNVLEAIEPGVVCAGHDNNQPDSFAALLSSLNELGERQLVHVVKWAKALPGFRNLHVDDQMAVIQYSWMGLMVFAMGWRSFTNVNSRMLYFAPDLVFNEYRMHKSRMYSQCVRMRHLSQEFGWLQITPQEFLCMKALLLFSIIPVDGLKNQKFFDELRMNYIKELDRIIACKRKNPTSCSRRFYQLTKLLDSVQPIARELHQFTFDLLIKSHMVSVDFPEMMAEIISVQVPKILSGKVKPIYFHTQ

Experiments:
[1] = biological target: T1, caveolin-1 (mouse (endogenous in TM4)) (UniProt P49817); assay: co-IP; membrane fraction proteins of TM4 cells treated with vehicle (basal) or 10 nM testosterone for 30 min; immunoprecipitated with anti-caveolin-1 or anti-AR antibody, protein G Dynabeads, Western blot
T1 sequence: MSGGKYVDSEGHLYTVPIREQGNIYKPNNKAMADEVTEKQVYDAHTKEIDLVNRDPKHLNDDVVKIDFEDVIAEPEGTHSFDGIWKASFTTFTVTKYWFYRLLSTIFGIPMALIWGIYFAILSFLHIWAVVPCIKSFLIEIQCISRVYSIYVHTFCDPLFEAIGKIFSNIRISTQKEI

[2] = biological target: androgen receptor (mouse (endogenous in TM4)) (UniProt P19091); assay: as above

- binding [1]: binds
Molecule: androgen receptor (from UniProt P19091 1-899)

- binding [2]: binds
B1: caveolin-1 (protein, UniProt P49817-1 1-178)
chain: T1 sequence
